Data published in patent US20250189530A1 (STCUBE, published 2025).
Results are given in words; binding and its absence hold for the method and conditions named. Some entries that bind do so weakly or less than the wild type. Tags and fused reporters may be left off the sequences shown.

T1: Denatured hBTN1A1-His (human) (UniProt Q13410)
T1 sequence (antigen, looked up): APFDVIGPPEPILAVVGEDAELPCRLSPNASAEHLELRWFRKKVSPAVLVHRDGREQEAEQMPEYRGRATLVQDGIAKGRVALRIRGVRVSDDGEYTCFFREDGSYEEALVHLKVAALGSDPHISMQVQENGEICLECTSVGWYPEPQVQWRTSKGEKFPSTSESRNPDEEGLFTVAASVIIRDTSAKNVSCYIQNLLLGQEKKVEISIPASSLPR

T2: hBTN1A1-His (human, UniProt Q13410)
T2 construct: also called human BTN1A1-His
T2 sequence (antigen, looked up): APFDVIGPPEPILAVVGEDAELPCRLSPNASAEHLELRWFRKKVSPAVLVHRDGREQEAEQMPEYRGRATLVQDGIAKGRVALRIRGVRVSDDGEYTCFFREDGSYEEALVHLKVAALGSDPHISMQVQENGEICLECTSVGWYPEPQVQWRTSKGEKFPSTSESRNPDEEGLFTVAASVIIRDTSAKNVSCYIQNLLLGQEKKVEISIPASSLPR


Assays:
[1] = biological target: T1, Denatured hBTN1A1-His (human); assay: ELISA, titration of purified antibody
hBTN1A1-His = biological target: T2, hBTN1A1-His; assay: ELISA, titration of purified antibody

binding [1]	binding (hBTN1A1-His)	Binder
binds	binds	STC43G3-1 (antibody, V domains shown, From immunized New Zealand rabbits; IgG heavy chain and Kappa light chain; Variable domains without signal peptide; also called clone #43G3-1) VH: QSLEESGGRLVTPGTPLTLTCTVSGIDLSRYGVNWVRQAPGKGLEWIGYIGTTGNTYYASWVNGRFTISKTSTTVELKMTSLTAADTATYFCARSVVSPSNSSFWGQGTLVTVSS VL: DPVMTQTPSSTSAAVGGTVTINCQSSQSVYNNNNLSWFQQKPGQPPKLLIYRASKLPSGVPPRFSGSGSGTQFTLTISSVQCDDAATYFCAGGYSGDINVFGGGTEVVVK
binds	binds	STC85F1-1 (antibody, V domains shown, From immunized New Zealand rabbits; IgG heavy chain and Kappa light chain; Variable domains without signal peptide; also called clone #85F1-1) VH: QSLEESGGRLVTPGGSLTLTCTVSGIDLSRYGVNWVRQAPGKGLEWIGYIGTTSNTYYASWAKGRFTISKTSSTTVDLKMTSLTTEDTATYFCARSVVSPSNSSFWGQGTLVTVSS VL: DPVMTQTPSSTSAAVGGTVTINCQSSQSVYNNKNLSWFQQKPGQPPKLLIYRASTLPSGVPSRFKGSGSGTQFTLTISDLECDDAATYYCAGGYSGDINVFGGGTEVVVK
